# Laboratory results reported in the supplement of paper PMC12819154, “High-throughput peptide-centric local stability assay extends protein–ligand identification to membrane proteins, tissues and bacteria” (Nature Structural & Molecular Biology, 2025).
# Amino acid sequences for entries named in this document (tags omitted). A change or cut given only in a name is not applied to a line headed by its entry.
# UniProt Q3TXS7: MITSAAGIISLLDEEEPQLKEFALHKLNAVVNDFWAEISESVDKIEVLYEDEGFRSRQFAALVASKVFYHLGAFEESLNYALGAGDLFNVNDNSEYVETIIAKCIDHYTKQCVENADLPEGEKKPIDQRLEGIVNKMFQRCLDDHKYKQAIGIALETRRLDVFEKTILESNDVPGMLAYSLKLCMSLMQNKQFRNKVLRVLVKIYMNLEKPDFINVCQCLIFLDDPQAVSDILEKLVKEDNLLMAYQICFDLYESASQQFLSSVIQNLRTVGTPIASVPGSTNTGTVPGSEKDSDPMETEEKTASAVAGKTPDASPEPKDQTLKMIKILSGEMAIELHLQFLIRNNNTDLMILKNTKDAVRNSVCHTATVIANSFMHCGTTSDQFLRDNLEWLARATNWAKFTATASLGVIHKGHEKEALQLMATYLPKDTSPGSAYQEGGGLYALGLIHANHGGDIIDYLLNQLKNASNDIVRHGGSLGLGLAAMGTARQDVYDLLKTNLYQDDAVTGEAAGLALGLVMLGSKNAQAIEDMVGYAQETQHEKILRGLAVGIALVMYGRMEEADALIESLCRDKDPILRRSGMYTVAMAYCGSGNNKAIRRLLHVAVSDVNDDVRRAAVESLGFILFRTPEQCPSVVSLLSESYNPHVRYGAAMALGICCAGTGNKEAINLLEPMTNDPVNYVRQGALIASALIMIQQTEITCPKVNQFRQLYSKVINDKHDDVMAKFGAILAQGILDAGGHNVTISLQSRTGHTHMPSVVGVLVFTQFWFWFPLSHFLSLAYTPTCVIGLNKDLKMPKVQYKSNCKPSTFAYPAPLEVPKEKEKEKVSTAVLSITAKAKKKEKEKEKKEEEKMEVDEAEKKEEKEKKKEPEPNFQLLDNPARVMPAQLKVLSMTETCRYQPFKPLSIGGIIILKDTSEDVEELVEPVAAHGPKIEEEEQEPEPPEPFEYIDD
# UniProt Q00623: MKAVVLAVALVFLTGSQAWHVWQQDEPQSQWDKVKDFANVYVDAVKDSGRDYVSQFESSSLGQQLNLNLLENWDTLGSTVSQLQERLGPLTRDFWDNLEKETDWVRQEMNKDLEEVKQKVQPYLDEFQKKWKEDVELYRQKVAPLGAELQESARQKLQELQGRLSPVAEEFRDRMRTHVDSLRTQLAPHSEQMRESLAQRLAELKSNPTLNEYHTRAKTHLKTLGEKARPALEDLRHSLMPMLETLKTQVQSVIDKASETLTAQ
# UniProt Q05685: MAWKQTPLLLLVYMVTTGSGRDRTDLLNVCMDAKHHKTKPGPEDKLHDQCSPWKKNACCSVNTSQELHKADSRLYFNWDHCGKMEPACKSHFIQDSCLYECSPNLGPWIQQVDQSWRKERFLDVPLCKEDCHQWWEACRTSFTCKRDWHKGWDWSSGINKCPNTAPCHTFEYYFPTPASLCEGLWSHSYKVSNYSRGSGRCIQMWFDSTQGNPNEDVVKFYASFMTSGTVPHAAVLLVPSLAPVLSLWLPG
# UniProt Q3UGR5: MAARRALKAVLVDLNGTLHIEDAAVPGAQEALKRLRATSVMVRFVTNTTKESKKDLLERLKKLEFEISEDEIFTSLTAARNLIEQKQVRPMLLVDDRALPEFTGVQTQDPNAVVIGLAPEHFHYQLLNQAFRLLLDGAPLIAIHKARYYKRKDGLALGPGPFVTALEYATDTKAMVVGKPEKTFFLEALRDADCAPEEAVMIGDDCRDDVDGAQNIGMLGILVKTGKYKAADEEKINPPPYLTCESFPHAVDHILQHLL
# UniProt Q08943, whole entry: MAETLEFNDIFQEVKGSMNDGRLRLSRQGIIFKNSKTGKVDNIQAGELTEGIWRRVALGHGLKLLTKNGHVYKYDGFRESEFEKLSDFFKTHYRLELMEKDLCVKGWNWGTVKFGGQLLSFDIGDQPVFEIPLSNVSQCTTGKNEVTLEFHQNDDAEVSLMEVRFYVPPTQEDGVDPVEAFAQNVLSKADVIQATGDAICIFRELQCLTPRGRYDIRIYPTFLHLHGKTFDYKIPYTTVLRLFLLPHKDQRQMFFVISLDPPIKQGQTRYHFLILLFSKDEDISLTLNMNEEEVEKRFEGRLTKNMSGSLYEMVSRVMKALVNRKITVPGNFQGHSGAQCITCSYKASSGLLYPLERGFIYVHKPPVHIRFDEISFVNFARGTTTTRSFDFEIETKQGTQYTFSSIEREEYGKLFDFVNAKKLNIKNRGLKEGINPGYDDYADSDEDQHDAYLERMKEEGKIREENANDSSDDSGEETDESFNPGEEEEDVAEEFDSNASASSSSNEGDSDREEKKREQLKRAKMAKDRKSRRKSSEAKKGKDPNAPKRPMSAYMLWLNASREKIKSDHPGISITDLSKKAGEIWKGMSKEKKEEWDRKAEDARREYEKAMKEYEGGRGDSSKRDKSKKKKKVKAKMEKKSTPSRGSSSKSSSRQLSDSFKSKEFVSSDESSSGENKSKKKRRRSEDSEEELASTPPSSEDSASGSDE
# UniProt Q3ULF4: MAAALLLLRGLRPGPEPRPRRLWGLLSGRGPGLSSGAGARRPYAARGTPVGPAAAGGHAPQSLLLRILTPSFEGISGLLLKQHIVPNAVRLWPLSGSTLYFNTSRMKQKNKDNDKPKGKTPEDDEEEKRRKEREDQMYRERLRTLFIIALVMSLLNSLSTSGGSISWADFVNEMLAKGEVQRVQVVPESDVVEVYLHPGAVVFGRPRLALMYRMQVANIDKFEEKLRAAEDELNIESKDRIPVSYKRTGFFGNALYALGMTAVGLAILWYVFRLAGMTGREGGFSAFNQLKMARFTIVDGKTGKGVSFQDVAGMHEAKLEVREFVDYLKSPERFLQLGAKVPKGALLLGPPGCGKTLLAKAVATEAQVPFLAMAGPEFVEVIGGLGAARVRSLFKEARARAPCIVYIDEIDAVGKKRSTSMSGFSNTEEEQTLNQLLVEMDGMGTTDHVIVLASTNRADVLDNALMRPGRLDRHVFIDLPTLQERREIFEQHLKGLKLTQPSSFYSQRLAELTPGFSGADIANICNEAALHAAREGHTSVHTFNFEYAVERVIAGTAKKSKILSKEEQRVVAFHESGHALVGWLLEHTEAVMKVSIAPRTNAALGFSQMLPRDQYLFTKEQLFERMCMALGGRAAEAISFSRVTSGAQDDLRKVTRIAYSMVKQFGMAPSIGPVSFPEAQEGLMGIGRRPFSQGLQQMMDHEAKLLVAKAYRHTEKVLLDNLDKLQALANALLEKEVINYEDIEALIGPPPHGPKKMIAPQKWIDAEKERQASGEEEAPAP
# UniProt Q3UPF5: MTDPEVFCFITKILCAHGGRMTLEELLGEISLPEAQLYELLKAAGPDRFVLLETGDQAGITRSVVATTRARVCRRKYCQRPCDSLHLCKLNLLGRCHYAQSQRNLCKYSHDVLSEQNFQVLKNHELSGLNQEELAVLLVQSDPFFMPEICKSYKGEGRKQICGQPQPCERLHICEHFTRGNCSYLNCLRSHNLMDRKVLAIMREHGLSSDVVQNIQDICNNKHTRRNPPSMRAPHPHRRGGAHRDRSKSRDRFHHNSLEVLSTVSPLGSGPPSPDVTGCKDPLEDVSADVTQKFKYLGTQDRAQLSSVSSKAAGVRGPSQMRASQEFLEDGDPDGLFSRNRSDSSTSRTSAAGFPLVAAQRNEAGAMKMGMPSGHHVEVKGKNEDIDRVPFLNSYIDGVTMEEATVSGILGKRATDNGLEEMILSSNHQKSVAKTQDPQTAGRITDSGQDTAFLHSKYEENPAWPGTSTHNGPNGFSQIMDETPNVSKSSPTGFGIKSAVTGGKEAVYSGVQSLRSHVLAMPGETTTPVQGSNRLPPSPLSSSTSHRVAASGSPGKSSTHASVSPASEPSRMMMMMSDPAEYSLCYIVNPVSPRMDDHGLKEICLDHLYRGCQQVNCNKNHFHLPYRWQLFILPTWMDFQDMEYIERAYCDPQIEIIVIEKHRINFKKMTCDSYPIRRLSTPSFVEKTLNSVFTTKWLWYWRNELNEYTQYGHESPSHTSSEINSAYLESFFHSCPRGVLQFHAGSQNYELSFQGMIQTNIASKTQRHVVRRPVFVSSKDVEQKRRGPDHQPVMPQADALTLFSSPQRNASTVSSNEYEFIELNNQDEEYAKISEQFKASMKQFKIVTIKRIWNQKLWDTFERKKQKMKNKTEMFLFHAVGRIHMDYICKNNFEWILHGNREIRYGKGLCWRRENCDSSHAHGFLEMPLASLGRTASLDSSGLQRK
# UniProt Q3UA37: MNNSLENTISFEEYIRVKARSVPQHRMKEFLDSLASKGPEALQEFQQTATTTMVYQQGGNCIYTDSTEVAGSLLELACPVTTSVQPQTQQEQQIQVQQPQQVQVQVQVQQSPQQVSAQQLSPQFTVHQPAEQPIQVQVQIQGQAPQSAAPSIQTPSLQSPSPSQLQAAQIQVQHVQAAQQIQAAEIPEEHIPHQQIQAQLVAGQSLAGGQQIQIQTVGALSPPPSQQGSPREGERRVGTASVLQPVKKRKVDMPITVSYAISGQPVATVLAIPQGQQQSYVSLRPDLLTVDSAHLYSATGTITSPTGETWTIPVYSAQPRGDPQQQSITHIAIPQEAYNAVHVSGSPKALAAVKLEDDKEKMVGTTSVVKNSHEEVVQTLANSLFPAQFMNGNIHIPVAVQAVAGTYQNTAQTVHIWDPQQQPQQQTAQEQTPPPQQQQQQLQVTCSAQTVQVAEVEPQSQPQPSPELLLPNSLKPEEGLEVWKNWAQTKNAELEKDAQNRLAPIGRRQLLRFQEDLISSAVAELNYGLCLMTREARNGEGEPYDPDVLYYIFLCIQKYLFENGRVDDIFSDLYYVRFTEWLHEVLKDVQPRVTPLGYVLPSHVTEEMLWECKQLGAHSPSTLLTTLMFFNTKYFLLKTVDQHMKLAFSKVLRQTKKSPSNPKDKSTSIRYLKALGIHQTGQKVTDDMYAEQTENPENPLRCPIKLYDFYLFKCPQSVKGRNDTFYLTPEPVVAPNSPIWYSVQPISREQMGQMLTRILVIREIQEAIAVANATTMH
# UniProt Q4KMM3: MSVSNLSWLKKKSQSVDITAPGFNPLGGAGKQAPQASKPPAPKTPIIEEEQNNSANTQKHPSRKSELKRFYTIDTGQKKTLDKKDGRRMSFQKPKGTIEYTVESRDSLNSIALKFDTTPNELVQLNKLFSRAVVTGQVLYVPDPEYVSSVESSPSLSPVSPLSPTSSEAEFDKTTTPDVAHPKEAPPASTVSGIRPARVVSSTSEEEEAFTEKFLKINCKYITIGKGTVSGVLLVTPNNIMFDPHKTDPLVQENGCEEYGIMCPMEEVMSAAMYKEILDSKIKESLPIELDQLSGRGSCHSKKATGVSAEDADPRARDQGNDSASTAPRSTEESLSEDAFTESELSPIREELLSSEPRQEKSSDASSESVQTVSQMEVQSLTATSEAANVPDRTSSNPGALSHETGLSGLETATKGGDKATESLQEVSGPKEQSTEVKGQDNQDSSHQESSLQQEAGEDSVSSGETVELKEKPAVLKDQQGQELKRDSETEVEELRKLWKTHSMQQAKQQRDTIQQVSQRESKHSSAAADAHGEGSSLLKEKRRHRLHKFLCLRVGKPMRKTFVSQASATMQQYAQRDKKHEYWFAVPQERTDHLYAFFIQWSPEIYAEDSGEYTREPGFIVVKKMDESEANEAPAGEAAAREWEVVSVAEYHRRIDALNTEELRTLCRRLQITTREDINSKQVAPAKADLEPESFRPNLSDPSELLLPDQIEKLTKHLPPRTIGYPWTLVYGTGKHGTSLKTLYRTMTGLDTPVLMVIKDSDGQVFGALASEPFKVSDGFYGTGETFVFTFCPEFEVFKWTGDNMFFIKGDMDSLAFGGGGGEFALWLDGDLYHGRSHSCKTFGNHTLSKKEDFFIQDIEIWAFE
# UniProt Q02248, whole entry: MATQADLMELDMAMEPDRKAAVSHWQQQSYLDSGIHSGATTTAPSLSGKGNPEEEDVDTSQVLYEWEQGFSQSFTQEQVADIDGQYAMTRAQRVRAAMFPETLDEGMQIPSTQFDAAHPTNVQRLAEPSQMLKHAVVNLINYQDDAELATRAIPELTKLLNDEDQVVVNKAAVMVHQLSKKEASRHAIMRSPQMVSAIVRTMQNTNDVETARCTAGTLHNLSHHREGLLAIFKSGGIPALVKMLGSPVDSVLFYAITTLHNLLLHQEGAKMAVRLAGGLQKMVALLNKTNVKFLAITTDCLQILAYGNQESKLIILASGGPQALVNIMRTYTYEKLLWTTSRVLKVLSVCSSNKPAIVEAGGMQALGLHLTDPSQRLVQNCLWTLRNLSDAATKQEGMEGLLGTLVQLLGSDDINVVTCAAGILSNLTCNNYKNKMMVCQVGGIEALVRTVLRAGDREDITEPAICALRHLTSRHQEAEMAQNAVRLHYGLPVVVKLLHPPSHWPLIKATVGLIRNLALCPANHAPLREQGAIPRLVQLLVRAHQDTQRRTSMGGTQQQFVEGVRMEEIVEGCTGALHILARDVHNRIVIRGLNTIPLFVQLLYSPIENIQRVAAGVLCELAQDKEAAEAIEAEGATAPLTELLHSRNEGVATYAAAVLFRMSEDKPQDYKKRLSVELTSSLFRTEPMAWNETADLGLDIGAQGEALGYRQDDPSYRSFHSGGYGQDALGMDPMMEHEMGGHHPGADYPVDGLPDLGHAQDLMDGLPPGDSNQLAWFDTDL
# Some of the results follow. Most entries show no effect beyond the scatter of the controls.
# Compound: CN[C@@H]1C[C@H]2O[C@@](C)([C@@H]1OC)n1c3ccccc3c3c4c(c5c6ccccc6n2c5c31)C(=O)NC4 [staurosporine]
# Assay: log2 fold change of pooled soluble protein (PISA), ligand vs vehicle (log2 ratio); higher = more thermally stabilized
# Conditions: ligand concentration: 20 uM; assay format: PISA pool 52.9/55.5/58.6 C
row,Target,log2 fold change of pooled soluble protein
1,UniProt Q3TXS7,-0.0566
2,UniProt Q00623,-0.0969
3,UniProt Q05685,-0.0213
4,UniProt Q3UE37,0.129
5,UniProt Q3URQ7,0.0357
6,UniProt Q5DTM8,-0.0133
7,UniProt Q01405,0.000736
8,UniProt Q3THS6,-0.0429
9,UniProt Q5FWI3,-0.0822
10,UniProt Q3UQ44,-0.106
11,UniProt Q3UGR5,-0.341
12,UniProt Q3U5F4,-0.126
13,UniProt Q3TX08,0.125
14,UniProt Q3TV70,-0.0717
15,UniProt Q571E4,-0.27
16,UniProt Q3UJU9,0.0367
17,UniProt Q05144,0.0535
18,UniProt Q3TXX3,-0.00443

row,Target,log2 fold change of pooled soluble protein
1,UniProt Q3UQN2,-0.142
2,UniProt Q00724,-0.0123
3,UniProt Q08943,-0.0759
4,UniProt Q3U4I7,0.0549
5,UniProt Q4KML4,0.405
6,UniProt Q3ULF4,0.0218
7,UniProt Q3UEG6,-0.0272
8,UniProt Q4VC33,-0.106
9,UniProt Q3UDP0,-0.167
10,UniProt Q3UPF5,-0.0983
11,UniProt Q3UA37,-0.116
12,UniProt Q505F5,0.0538
13,UniProt Q02780,-0.328
14,UniProt Q02819,0.0447
15,UniProt Q3TYS2,-0.237
16,UniProt Q4KMM3,0.0682
17,UniProt Q02248,-0.0998
18,UniProt Q3TJD7,0.0553

# Exported with tabs: entries from further up
row	Target	log2 fold change of pooled soluble protein
3	UniProt Q08943	-0.0759
8	UniProt Q4VC33	-0.106
